Assay results published in doi:10.1101/2024.06.03.594717.
These are yes or no findings as the source states them, for the method shown. Binding calls can cover weak binding; strength is not graded here.

By UniProt entry, the sequences of proteins in these tests, tags left out. Residues count along the entry.
UniProt Q9UF56, residues 310-701: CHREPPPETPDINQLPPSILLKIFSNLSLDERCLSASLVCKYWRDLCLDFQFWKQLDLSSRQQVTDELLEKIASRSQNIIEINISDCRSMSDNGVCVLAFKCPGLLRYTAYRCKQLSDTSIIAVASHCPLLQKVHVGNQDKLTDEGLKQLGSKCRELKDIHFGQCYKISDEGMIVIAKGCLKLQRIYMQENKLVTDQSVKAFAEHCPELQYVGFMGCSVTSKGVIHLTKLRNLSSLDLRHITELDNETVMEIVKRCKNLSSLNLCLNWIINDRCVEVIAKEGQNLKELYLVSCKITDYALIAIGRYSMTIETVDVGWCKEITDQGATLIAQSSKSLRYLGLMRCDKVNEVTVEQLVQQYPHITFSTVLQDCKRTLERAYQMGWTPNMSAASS

Molecular target: SKP1 (human) (UniProt P63208)
Assay: cryo-EM structure; GLMN-SCF^FBXL17-BACH1-BTB complex formed with native (untreated) GST-BACH1-BTB on a glutathione column, tags cleaved by TEV, SEC; monomeric (mSCF^BTB) and dimeric (dSCF^BTB-I, -II) species; both purified

binding: binds
Substance: FBXL17 (amino acids 310-701) (from UniProt Q9UF56 310-701) (domain or fragment)
